# Data published in the supplement of paper PMC8728848.
# The other results are listed elsewhere or left out.
# Assays:
# Test in all cases: glycan array binding signal (z-score within array); higher = stronger binding
# Settings in all cases: glycan notation: IUPAC condensed, linker removed
# [1] = target: Neu5Ac(a2-6)Gal(b1-4)GlcNAc(b1-3)Gal(b1-4)GlcNAc(b1-3)GalNAc
# In short: (§1)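 Glycan array binding is given as a within-array Z-score, which can be read as non-binding when negative. The arrays, 3228 of them, came from the Consortium for Functional Glycomics database and were retained only where the protein sequence was available. Z-scores were averaged across arrays of the same protein sequence at different concentrations or buffers and across linkers.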
# [2] = target: Neu5Ac(a2-6)Gal(b1-4)GlcNAc(b1-3)Gal(b1-4)GlcNAc(b1-3)[Neu5Ac(a2-6)Gal(b1-4)GlcNAc(b1-3)Gal(b1-4)GlcNAc(b1-6)]GalNAc
# In short: as §1
# [3] = target: Neu5Ac(a2-6)Gal(b1-4)GlcNAc(b1-3)Gal(b1-4)GlcNAc(b1-6)[Gal(b1-3)]GalNAc
# In short: as §1
# [4] = target: Neu5Ac(a2-6)Gal(b1-4)GlcNAc(b1-3)Gal(b1-4)[Fuc(a1-3)]GlcNAc(b1-3)Gal(b1-4)[Fuc(a1-3)]GlcNAc
# In short: as §1
# [5] = target: Neu5Ac(a2-6)Gal(b1-4)GlcNAc(b1-3)GalNAc
# In short: as §1
# [6] = target: Neu5Ac(a2-6)Gal(b1-4)GlcNAc(b1-3)[Neu5Ac(a2-6)Gal(b1-4)GlcNAc(b1-6)]GalNAc
# In short: as §1
# [7] = target: Neu5Ac(a2-6)Gal(b1-4)GlcNAc(b1-6)GalNAc
# In short: as §1
# [8] = target: Neu5Ac(a2-6)Gal(b1-4)GlcNAc(b1-6)[Gal(b1-3)GlcNAc(b1-3)]Gal(b1-4)Glc
# In short: as §1
# [9] = target: Neu5Ac(a2-6)Gal(b1-4)GlcNAc(b1-6)[Gal(b1-3)]GalNAc
# In short: as §1
# [10] = target: Neu5Ac(a2-6)Gal(b1-4)GlcNAc6S
# In short: as §1
# Neu5Ac(a2-6)GalNAc = target: Neu5Ac(a2-6)GalNAc
# In short: as §1
# [11] = target: Neu5Ac(a2-6)GalNAc(b1-4)GlcNAc
# In short: as §1
# [12] = target: Neu5Ac(a2-6)GalNAc(b1-4)GlcNAc6S
# In short: as §1
# [13] = target: Neu5Ac(a2-6)GlcNAc(b1-4)GlcNAc
# In short: as §1
# [14] = target: Neu5Ac(a2-6)GlcNAc(b1-4)GlcNAc(b1-4)GlcNAc
# In short: as §1
# Neu5Ac(a2-8)Neu5Ac = target: Neu5Ac(a2-8)Neu5Ac
# In short: as §1
# [15] = target: Neu5Ac(a2-8)Neu5Ac(a2-3)Gal(b1-3)GalNAc(b1-4)[Neu5Ac(a2-3)]Gal(b1-4)Glc
# In short: as §1
# [16] = target: Neu5Ac(a2-8)Neu5Ac(a2-3)Gal(b1-3)GalNAc(b1-4)[Neu5Ac(a2-8)Neu5Ac(a2-3)]Gal(b1-4)Glc
# In short: as §1
# [17] = target: Neu5Ac(a2-8)Neu5Ac(a2-3)Gal(b1-4)Glc
# In short: as §1
# [18] = target: Neu5Ac(a2-8)Neu5Ac(a2-3)Gal(b1-4)GlcNAc
# In short: as §1
# [19] = target: Neu5Ac(a2-8)Neu5Ac(a2-3)[Gal(b1-3)GalNAc(b1-4)]Gal(b1-4)Glc
# In short: as §1
# [20] = target: Neu5Ac(a2-8)Neu5Ac(a2-3)[GalNAc(b1-4)]Gal(b1-4)Glc
# In short: as §1
# [21] = target: Neu5Ac(a2-8)Neu5Ac(a2-8)Neu5Ac
# In short: as §1
# [22] = target: Neu5Ac(a2-8)Neu5Ac(a2-8)Neu5Ac(a2-3)Gal(b1-4)Glc
# In short: as §1
# [23] = target: Neu5Ac(a2-8)Neu5Ac(a2-8)Neu5Ac(a2-3)[Gal(b1-3)GalNAc(b1-4)]Gal(b1-4)Glc
# In short: as §1
# [24] = target: Neu5Ac(a2-8)Neu5Ac(a2-8)Neu5Ac(a2-3)[GalNAc(b1-4)]Gal(b1-4)Glc
# In short: as §1
# [25] = target: Neu5Ac(a2-8)Neu5Ac(a2-8)Neu5Ac(a2-8)Neu5Ac(a2-3)[GalNAc(b1-4)]Gal(b1-4)Glc
# In short: as §1
# [26] = target: Neu5Ac(a2-8)Neu5Gc(a2-3)Gal(b1-4)GlcNAc
# In short: as §1
# [27] = target: Neu5Ac(b2-6)Gal(b1-4)GlcNAc
# In short: as §1
# Neu5Ac(b2-6)GalNAc = target: Neu5Ac(b2-6)GalNAc
# In short: as §1
# [28] = target: Neu5Ac9Ac(a2-3)Gal(b1-3)GlcNAc
# In short: as §1
# [29] = target: Neu5Ac9Ac(a2-3)Gal(b1-4)GlcNAc
# In short: as §1
# [30] = target: Neu5Ac9Ac(a2-6)Gal(b1-4)GlcNAc
# In short: as §1
# [31] = target: Neu5Gc(a2-3)Gal(b1-3)GlcNAc
# In short: as §1
# [32] = target: Neu5Gc(a2-3)Gal(b1-3)[Fuc(a1-4)]GlcNAc
# In short: as §1
# Neu5Gc(a2-3)Gal(b1-4)Glc = target: Neu5Gc(a2-3)Gal(b1-4)Glc
# In short: as §1
# [33] = target: Neu5Gc(a2-3)Gal(b1-4)GlcNAc
# In short: as §1
# [34] = target: Neu5Gc(a2-3)Gal(b1-4)GlcNAc(b1-3)Gal(b1-4)GlcNAc(b1-2)Man(a1-3)[Neu5Gc(a2-3)Gal(b1-4)GlcNAc(b1-3)Gal(b1-4)GlcNAc(b1-2)Man(a1-6)]Man(b1-4)GlcNAc(b1-4)GlcNAc
# In short: as §1
# [35] = target: Neu5Gc(a2-3)Gal(b1-4)[Fuc(a1-3)]GlcNAc
# In short: as §1
# [36] = target: Neu5Gc(a2-6)Gal(b1-4)GlcNAc
# In short: as §1
# Neu5Gc(a2-6)GalNAc = target: Neu5Gc(a2-6)GalNAc
# In short: as §1
# [37] = target: Neu5Gc(a2-8)Neu5Ac(a2-3)Gal(b1-4)GlcNAc
# In short: as §1
# [38] = target: Neu5Gc(a2-8)Neu5Gc(a2-3)Gal(b1-4)GlcNAc
# In short: as §1
# [39] = target: Neu5Gc(a2-8)Neu5Gc(a2-3)Gal(b1-4)GlcNAc(b1-3)Gal(b1-4)GlcNAc
# In short: as §1
# [40] = target: Neu5Gc(a2-8)Neu5Gc(a2-6)Gal(b1-4)GlcNAc
# In short: as §1
# [41] = target: Neu5Gc(b2-6)Gal(b1-4)GlcNAc
# In short: as §1
binder,measurement,setting,value
CM2 (Cordyceps militaris) (protein) MEIAEQNVGKSCAIVNLIPPKEGSNIWTAKQVTIARNLPPNRGTGRHQIDWSFGPVKVTGYVDTTNWEIGVTVSIMGIDLGTVYGNLRDGVVLNVDLFLAKGQVRFYLKNGNEVWVHLSVEIRFDGKFEGDYKIITV,glycan array binding signal (z-score),[1],-0.434
same,glycan array binding signal (z-score),[2],0.217
same,glycan array binding signal (z-score),[3],-0.589
same,glycan array binding signal (z-score),[4],-0.117
same,glycan array binding signal (z-score),[5],-0.581
same,glycan array binding signal (z-score),[6],-0.481
same,glycan array binding signal (z-score),[7],0.753
same,glycan array binding signal (z-score),[8],-1.25
same,glycan array binding signal (z-score),[9],1.06
same,glycan array binding signal (z-score),[10],-1.69
same,glycan array binding signal (z-score),Neu5Ac(a2-6)GalNAc,0.447
same,glycan array binding signal (z-score),[11],-0.06
same,glycan array binding signal (z-score),[12],-0.442
same,glycan array binding signal (z-score),[13],0.479
same,glycan array binding signal (z-score),[14],-0.919
same,glycan array binding signal (z-score),Neu5Ac(a2-8)Neu5Ac,-0.43
same,glycan array binding signal (z-score),[15],-0.16
same,glycan array binding signal (z-score),[16],0.161
same,glycan array binding signal (z-score),[17],-0.496
same,glycan array binding signal (z-score),[18],-1.84
same,glycan array binding signal (z-score),[19],-0.036
same,glycan array binding signal (z-score),[20],-1.4
same,glycan array binding signal (z-score),[21],0.451
same,glycan array binding signal (z-score),[22],0.46
same,glycan array binding signal (z-score),[23],-0.622
same,glycan array binding signal (z-score),[24],1.56
same,glycan array binding signal (z-score),[25],-0.964
same,glycan array binding signal (z-score),[26],-1.52
same,glycan array binding signal (z-score),[27],-0.375
same,glycan array binding signal (z-score),Neu5Ac(b2-6)GalNAc,-0.438
same,glycan array binding signal (z-score),[28],-0.873
same,glycan array binding signal (z-score),[29],-0.725
same,glycan array binding signal (z-score),[30],-0.168
same,glycan array binding signal (z-score),[31],1.54
same,glycan array binding signal (z-score),[32],-0.29
same,glycan array binding signal (z-score),Neu5Gc(a2-3)Gal(b1-4)Glc,1.76
same,glycan array binding signal (z-score),[33],-2.11
same,glycan array binding signal (z-score),[34],-1.5
same,glycan array binding signal (z-score),[35],-1.07
same,glycan array binding signal (z-score),[36],2.22
same,glycan array binding signal (z-score),Neu5Gc(a2-6)GalNAc,-1.22
same,glycan array binding signal (z-score),[37],-0.302
same,glycan array binding signal (z-score),[38],0.593
same,glycan array binding signal (z-score),[39],-0.074
same,glycan array binding signal (z-score),[40],-0.469
same,glycan array binding signal (z-score),[41],-0.922

# Fetched one by one from the list above (four):
binder,measurement,setting,value
CM2 (Cordyceps militaris) (protein) MEIAEQNVGKSCAIVNLIPPKEGSNIWTAKQVTIARNLPPNRGTGRHQIDWSFGPVKVTGYVDTTNWEIGVTVSIMGIDLGTVYGNLRDGVVLNVDLFLAKGQVRFYLKNGNEVWVHLSVEIRFDGKFEGDYKIITV,glycan array binding signal (z-score),[25],-0.964
same,glycan array binding signal (z-score),[13],0.479
same,glycan array binding signal (z-score),[37],-0.302
same,glycan array binding signal (z-score),[23],-0.622
